For at least one compound, name, drawing or mass did not settle the structure.
Tested on: VEGF165-induced retinal vasculopathy
Assay: Remnant effect after intravitreal triamcinolone acetonide, VEGF165-induced retinal vasculopathy (Example 9)
Type: in vivo, Dutch-belted rabbits
Settings: after 48 hours
Description: An experiment was carried out which determined existence of a remnant effect (i.e. a therapeutic effect of the active agent when a therapeutic amount of the active agent was not longer present) of intravitreal triamcinolone. Six Dutch-belted rabbits were divided into two groups of three each. After standard pars plana vitrectomy, one group received 4 mg of the glucocorticoid triamcinolone acetonide (TA) in a 0.1 ml volume (Kenalog® 40), and the other group received 0.1 ml of a 5% PLGA (poly lactic/glycolic acid) solution. One minute later the TA or PLGA was removed with a subtotal vitrectomy and soft tip needle. Forty-eight hours after the surgery VEGF165 (500 ng/50 μl) was injected intravitreally via a 29 gauge needle to induce retinal vasculopathy and assess a pharmacological action of any remnant effect of either TA or PLGA. Assessment of retinal color fundus imaging, fluorescein angiography (FA), and fluorometry was made upon VEGF administration and 48 hours following such administration to assess leak from the retina vasculature as a result of VEGF165 administration, and the effect of either TA or PLGA on such leakage.

Compound: CC1(C)O[C@@H]2C[C@H]3[C@@H]4CCC5=CC(=O)C=C[C@]5(C)[C@@]4(F)[C@@H](O)C[C@]3(C)[C@]2(C(=O)CO)O1 [TA, triamcinolone acetonide]
- leakage upon fluorescence angiography compared with the PLGA group: Less leakage
